# Assay results: the supplement of paper PMC8728848
# Some of the results follow.
# B1: ERGIC1-EDTA (Homo sapiens), Q969X5 (protein)
# chain: MKFLVNVALVFMVVYISYIYAAAHMHHHHHHDYDIPTTENLYFQGSEVVNELYVDDPDKDSGGKIDVSLNISLPNLHCELVGLDIQDEMGRHEVGHIDNSMKIPLNNGAGCRFEGQFSINKVPGNFHVSTHSATAQPQNPDMTHVIHKLSFGDTLQVQNIHGAFNALGGADRLTSNPLASHDYILKIVPTVYEDKSGKQRYSYQYTVANKEYVAYSHTGRIIPAIWFRYDLSPITVKYTE
# Experiments:
# Test in all cases: glycan array binding signal (z-score within array); higher = stronger binding
# Settings in all cases: glycan notation: IUPAC condensed, linker removed
# Fuc(a1-2)Gal = target: Fuc(a1-2)Gal
# How it was run: (§1)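 Columns mapping to the same glycan were averaged after glycan names were converted to IUPAC-condensed notation. The data come from 3228 arrays in the Consortium for Functional Glycomics database, limited to those with an available protein sequence. Binding is reported as a within-array Z-score averaged across arrays of one protein sequence and across linkers.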
# Fuc(a1-2)Gal(b1-3)GalNAc = target: Fuc(a1-2)Gal(b1-3)GalNAc
# How it was run: as §1
# [1] = target: Fuc(a1-2)Gal(b1-3)GalNAc(a1-3)[Fuc(a1-2)]Gal(b1-4)Glc
# How it was run: as §1
# [2] = target: Fuc(a1-2)Gal(b1-3)GalNAc(a1-3)[Fuc(a1-2)]Gal(b1-4)GlcNAc
# How it was run: as §1
# [3] = target: Fuc(a1-2)Gal(b1-3)GalNAc(b1-3)Gal
# How it was run: as §1
# [4] = target: Fuc(a1-2)Gal(b1-3)GalNAc(b1-3)Gal(a1-4)Gal(b1-4)Glc
# How it was run: as §1
# [5] = target: Fuc(a1-2)Gal(b1-3)GalNAc(b1-4)[Neu5Ac(a2-3)]Gal(b1-4)Glc
# How it was run: as §1
# Fuc(a1-2)Gal(b1-3)GlcNAc = target: Fuc(a1-2)Gal(b1-3)GlcNAc
# How it was run: as §1
# [6] = target: Fuc(a1-2)Gal(b1-3)GlcNAc(b1-2)Man(a1-3)[Fuc(a1-2)Gal(b1-3)GlcNAc(b1-2)Man(a1-6)]Man(b1-4)GlcNAc(b1-4)GlcNAc
# How it was run: as §1
# [7] = target: Fuc(a1-2)Gal(b1-3)GlcNAc(b1-2)Man(a1-3)[Fuc(a1-2)Gal(b1-3)GlcNAc(b1-2)Man(a1-6)]Man(b1-4)GlcNAc(b1-4)[Fuc(a1-6)]GlcNAc
# How it was run: as §1
# [8] = target: Fuc(a1-2)Gal(b1-3)GlcNAc(b1-3)Gal(b1-4)Glc
# How it was run: as §1
# [9] = target: Fuc(a1-2)Gal(b1-3)GlcNAc(b1-3)GalNAc
# How it was run: as §1
# [10] = target: Fuc(a1-2)Gal(b1-3)GlcNAc(b1-3)[Fuc(a1-2)Gal(b1-3)GlcNAc(b1-6)]GalNAc
# How it was run: as §1
# [11] = target: Fuc(a1-2)Gal(b1-3)GlcNAc(b1-3)[Gal(b1-4)GlcNAc(b1-6)]Gal(b1-4)Glc
# How it was run: as §1
# [12] = target: Fuc(a1-2)Gal(b1-3)GlcNAc(b1-3)[Neu5Ac(a2-6)Gal(b1-4)GlcNAc(b1-6)]Gal(b1-4)Glc
# How it was run: as §1
# [13] = target: Fuc(a1-2)Gal(b1-3)GlcNAc6S
# How it was run: as §1
# [14] = target: Fuc(a1-2)Gal(b1-3)[Fuc(a1-4)]GlcNAc
# How it was run: as §1
# [15] = target: Fuc(a1-2)Gal(b1-3)[Fuc(a1-4)]GlcNAc(b1-2)Man(a1-3)[Fuc(a1-2)Gal(b1-3)[Fuc(a1-4)]GlcNAc(b1-2)Man(a1-3)]Man(b1-4)GlcNAc(b1-4)GlcNAc
# How it was run: as §1
# [16] = target: Fuc(a1-2)Gal(b1-3)[Fuc(a1-4)]GlcNAc(b1-2)Man(a1-3)[Fuc(a1-2)Gal(b1-3)[Fuc(a1-4)]GlcNAc(b1-2)Man(a1-6)]Man(b1-4)GlcNAc(b1-4)[Fuc(a1-6)]GlcNAc(b1-4)[Fuc(a1-6)]GlcNAc
# How it was run: as §1
# [17] = target: Fuc(a1-2)Gal(b1-3)[Fuc(a1-4)]GlcNAc(b1-3)[Fuc(a1-3)[Gal(b1-4)]GlcNAc(b1-6)]Gal(b1-4)Glc
# How it was run: as §1
# [18] = target: Fuc(a1-2)Gal(b1-3)[Fuc(a1-4)]GlcNAc(b1-3)[Gal(b1-4)GlcNAc(b1-6)]Gal(b1-4)Glc
# How it was run: as §1
# [19] = target: Fuc(a1-2)Gal(b1-4)Fuc(a1-3)]GlcNAc(b1-2)Man(a1-3)[Fuc(a1-2)Gal(b1-4)[Fuc(a1-3)]GlcNAc(b1-2)Man(a1-6)]Man(b1-4)GlcNAc(b1-4)GlcNAc
# How it was run: as §1
# Fuc(a1-2)Gal(b1-4)Glc = target: Fuc(a1-2)Gal(b1-4)Glc
# How it was run: as §1
# Fuc(a1-2)Gal(b1-4)Glc6S = target: Fuc(a1-2)Gal(b1-4)Glc6S
# How it was run: as §1
# Fuc(a1-2)Gal(b1-4)GlcNAc = target: Fuc(a1-2)Gal(b1-4)GlcNAc
# How it was run: as §1
# [20] = target: Fuc(a1-2)Gal(b1-4)GlcNAc(b1-2)Man
# How it was run: as §1
# [21] = target: Fuc(a1-2)Gal(b1-4)GlcNAc(b1-2)Man(a1-3)[Fuc(a1-2)Gal(b1-4)GlcNAc(b1-2)Man(a1-6)]Man(b1-4)GlcNAc(b1-4)GlcNAc
# How it was run: as §1
# [22] = target: Fuc(a1-2)Gal(b1-4)GlcNAc(b1-2)Man(a1-3)[Fuc(a1-2)Gal(b1-4)GlcNAc(b1-2)Man(a1-6)]Man(b1-4)GlcNAc(b1-4)[Fuc(a1-6)]GlcNAc
# How it was run: as §1
# [23] = target: Fuc(a1-2)Gal(b1-4)GlcNAc(b1-2)[Fuc(a1-2)Gal(b1-4)GlcNAc(b1-4)]Man(a1-3)[Fuc(a1-2)Gal(b1-4)GlcNAc(b1-2)Man(a1-6)]Man(b1-4)GlcNAc(b1-4)GlcNAc
# How it was run: as §1
# [24] = target: Fuc(a1-2)Gal(b1-4)GlcNAc(b1-3)Gal(b1-4)GlcNAc
# How it was run: as §1
# [25] = target: Fuc(a1-2)Gal(b1-4)GlcNAc(b1-3)Gal(b1-4)GlcNAc(b1-2)Man(a1-3)[Fuc(a1-2)Gal(b1-4)GlcNAc(b1-3)Gal(b1-4)GlcNAc(b1-2)Man(a1-6)]Man(b1-4)GlcNAc(b1-4)GlcNAc
# How it was run: as §1
# [26] = target: Fuc(a1-2)Gal(b1-4)GlcNAc(b1-3)Gal(b1-4)GlcNAc(b1-3)Gal(b1-4)GlcNAc
# How it was run: as §1
# [27] = target: Fuc(a1-2)Gal(b1-4)GlcNAc(b1-3)GalNAc
# How it was run: as §1
# [28] = target: Fuc(a1-2)Gal(b1-4)GlcNAc(b1-3)[Fuc(a1-2)Gal(b1-4)GlcNAc(b1-6)]GalNAc
# How it was run: as §1
# [29] = target: Fuc(a1-2)Gal(b1-4)GlcNAc(b1-3)[Fuc(a1-3)[Gal(b1-4)]GlcNAc(b1-6)]Gal(b1-4)Glc
# How it was run: as §1
# [30] = target: Fuc(a1-2)Gal(b1-4)GlcNAc(b1-6)GalNAc
# How it was run: as §1
# [31] = target: Fuc(a1-2)Gal(b1-4)GlcNAc6S
# How it was run: as §1
binder,measurement,setting,value
B1,glycan array binding signal (z-score),Fuc(a1-2)Gal,0.744
same,glycan array binding signal (z-score),Fuc(a1-2)Gal(b1-3)GalNAc,-0.119
same,glycan array binding signal (z-score),[1],0.453
same,glycan array binding signal (z-score),[2],-0.308
same,glycan array binding signal (z-score),[3],1.15
same,glycan array binding signal (z-score),[4],-0.752
same,glycan array binding signal (z-score),[5],-1.11
same,glycan array binding signal (z-score),Fuc(a1-2)Gal(b1-3)GlcNAc,-0.107
same,glycan array binding signal (z-score),[6],1.02
same,glycan array binding signal (z-score),[7],0.972
same,glycan array binding signal (z-score),[8],-0.301
same,glycan array binding signal (z-score),[9],-0.417
same,glycan array binding signal (z-score),[10],-0.309
same,glycan array binding signal (z-score),[11],-0.151
same,glycan array binding signal (z-score),[12],-0.999
same,glycan array binding signal (z-score),[13],-0.017
same,glycan array binding signal (z-score),[14],0.064
same,glycan array binding signal (z-score),[15],1.16
same,glycan array binding signal (z-score),[16],0.316
same,glycan array binding signal (z-score),[17],-0.833
same,glycan array binding signal (z-score),[18],1.36
same,glycan array binding signal (z-score),[19],1.01
same,glycan array binding signal (z-score),Fuc(a1-2)Gal(b1-4)Glc,-1.4
same,glycan array binding signal (z-score),Fuc(a1-2)Gal(b1-4)Glc6S,-0.045
same,glycan array binding signal (z-score),Fuc(a1-2)Gal(b1-4)GlcNAc,0.072
same,glycan array binding signal (z-score),[20],-0.469
same,glycan array binding signal (z-score),[21],0.786
same,glycan array binding signal (z-score),[22],0.522
same,glycan array binding signal (z-score),[23],2.88
same,glycan array binding signal (z-score),[24],-1.26
same,glycan array binding signal (z-score),[25],0.594
same,glycan array binding signal (z-score),[26],0.515
same,glycan array binding signal (z-score),[27],1.23
same,glycan array binding signal (z-score),[28],-0.42
same,glycan array binding signal (z-score),[29],-0.12
same,glycan array binding signal (z-score),[30],1.3
same,glycan array binding signal (z-score),[31],-0.213

# Part of the list above, as tab-separated lines:
binder	measurement	setting	value
B1	glycan array binding signal (z-score)	Fuc(a1-2)Gal(b1-4)GlcNAc	0.072
same	glycan array binding signal (z-score)	[20]	-0.469
